Results deposited as PubChem BioAssay AID1259317 (Drosophila RNAi Screening Center, 2017)
The whole screen tested 418 reagents; this is an unselected part. Of all reagents, 34 (8.1%) are marked active. 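Hits are two-sided: raised or lowered ATP both count; higher z-score means more ATP and more surviving cells.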 A number with no mark means an inactive call. Reagents against one gene are numbered here. Not stated in the record: the amount of reagent.

- Screen: 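Knockdowns that alter fly cell sensitivity to manganese chloride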 (primary screen)
- Cell system: Drosophila S2R+ cells
- Reagents: long dsRNA against Drosophila genes
- Timing: 5 days (4 days knockdown, then 1 day metal)
- Challenge: manganese chloride added to 15 mM final for 1 day
- Read-out: 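Viability read as luminescent ATP after knockdown plus a day in 15 mM manganese chloride; z-score of the mean of three replicate plates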
- Reading the numbers: mean z-score, 3 replicates: higher = more ATP, more surviving cells under manganese
- Hit rule: 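a knockdown is active when its averaged z-score lies above 1.5 or below -1.5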
- Meaning of the calls: active = hit: z-score beyond ±1.5 (ATP up or down); inactive = not a hit

gene	reagent	mean z-score, 3 replicates
ATP6AP2	1	0.26
ATP6AP2	2	-0.0803
ATP6AP2	3	-0.0612
ZnT63C	1	-0.287
ZnT63C	2	0.502
ZnT63C	3	0.509
Sgsh	1	-0.308
Xpac	1	-0.458
Xpac	2	2.2 (active)
Xpac	3	0.85
VhaPPA1-1	1	1.71 (active)
VhaPPA1-1	2	-1
VhaPPA1-1	3	1.42
Hgsnat	1	-0.461
Hgsnat	2	0.479
Hgsnat	3	-1.06
Pex2	1	-0.209
Pex2	2	-0.0276
VhaAC45	1	1.42
VhaAC45	2	0.407
VhaAC45	3	0.081
CRAT	1	-0.675
CRAT	2	0.627
Mpcp2	1	-0.928
Mpcp2	2	-1.06
VhaM9.7-c	1	-0.269
VhaM9.7-c	2	0.00972
CG3902	1	-1.48
CG3902	2	-0.234
ClC-b	1	0.954
ClC-b	2	-0.0616
ClC-b	3	-0.889
Pex5	1	0.955
Pex5	2	0.317
Pex5	3	-0.472
Npc2a	1	-0.874
cathD	1	0.78
CG7402	1	-0.532
Agps	1	-0.53
Agps	2	0.359
Agps	3	-0.809
VhaM9.7-b	1	0.728
VhaM9.7-b	2	1.04
CG4586	1	-0.682
CG4586	2	-1.02
Hel25E	1	-0.906
Hel25E	2	1.4
Hel25E	3	-1.1
AP-1mu	1	0.85
AP-1mu	2	1.19
g	1	0.328
g	2	1.02
Sod2	1	0.032
Sod2	2	-0.393
Npc2b	1	0.692
CG31926	1	0.0827
CG31926	2	0.359
CG31661	1	-0.533
CG31661	2	-0.782
Pex3	1	0.287
Pex3	2	-0.00352
JhI-21	1	-0.244
JhI-21	2	1.09
rb	1	0.0618
rb	2	-0.699
Vha13	1	1.02
CG12672	1	-0.456
CG14777	1	0.0175
CG14777	2	0.247
Sod3	1	0.928
Sod3	2	0.0959
mv	1	-0.94
mv	2	0.218
mv	3	-0.155
TrpRS-m	1	-1.06
TrpRS-m	2	-0.394
AP-1gamma	1	0.195
AP-1gamma	2	-0.416

Laid out differently: results already given
gene,reagent,"mean z-score, 3 replicates"
CG31926,2,0.359
CG31661,1,-0.533
CG31661,2,-0.782
Pex3,1,0.287
Pex3,2,-0.00352
JhI-21,1,-0.244
JhI-21,2,1.09
rb,1,0.0618
